{"sequences": {"note": "Amino acid sequences for entries named in this document (tags omitted).", "UniProt P69566": "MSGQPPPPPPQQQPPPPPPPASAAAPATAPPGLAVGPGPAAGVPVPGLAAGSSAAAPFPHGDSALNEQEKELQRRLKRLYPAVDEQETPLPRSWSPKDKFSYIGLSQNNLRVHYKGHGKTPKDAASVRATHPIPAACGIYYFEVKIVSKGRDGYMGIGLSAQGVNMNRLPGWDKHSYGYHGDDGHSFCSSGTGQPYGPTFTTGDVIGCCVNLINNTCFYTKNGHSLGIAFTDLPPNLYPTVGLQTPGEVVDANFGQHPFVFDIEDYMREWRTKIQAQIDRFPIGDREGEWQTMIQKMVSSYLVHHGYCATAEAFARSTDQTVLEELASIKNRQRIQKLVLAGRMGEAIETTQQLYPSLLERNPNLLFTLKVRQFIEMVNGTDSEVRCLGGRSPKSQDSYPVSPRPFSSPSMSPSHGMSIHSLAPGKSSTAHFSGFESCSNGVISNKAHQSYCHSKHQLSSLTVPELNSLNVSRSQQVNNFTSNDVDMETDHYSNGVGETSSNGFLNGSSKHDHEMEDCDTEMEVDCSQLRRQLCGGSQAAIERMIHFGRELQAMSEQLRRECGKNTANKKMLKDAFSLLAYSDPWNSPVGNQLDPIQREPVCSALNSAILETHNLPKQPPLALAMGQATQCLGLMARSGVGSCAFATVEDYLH"}, "source": "paper PMC11994786", "key": {"[1]": {"biological_target": "RanBP9-V5 (Ran Binding Protein 9 with a V5 tag at the C-terminus) (mouse) (UniProt P69566)", "assay": "affinity purification with mass spectrometry; anti-V5 magnetic beads on 1 mg pre-cleared whole lung lysate of LysMBP9X mice, overnight at 4 °C, on-bead trypsin digestion, LC-MS/MS; hits significant (p ≤ 0.05) against V5-IP from WT mice and Ig-IPs"}, "[2]": {"biological_target": "RanBP9-3xHA (Ran Binding Protein 9 fused to three copies of the HA tag) (mouse) (UniProt P69566)", "assay": "affinity purification with mass spectrometry; anti-HA magnetic beads on 1 mg pre-cleared whole lung lysate of LysMBP9X mice, overnight at 4 °C, on-bead trypsin digestion, LC-MS/MS; hits significant (p ≤ 0.05) against HA-IP from WT mice and Ig-IPs"}}, "note": "These are yes or no findings as the source states them, for the method shown. Binding seen in cells or lysates may run through a third protein. Here binding means that the protein was enriched with, or labelled near, the bait; the list need not be complete."}
{"binder": "Maea (Macrophage erythroblast attacher, E3 ubiquitin ligase) (protein, UniProt Q4VC33 1-396) MAVQESAAQLSMTLKVQEYPTLKVPYETLNKRFRAAQKNIDRETSHVTMVVAELEKTLSSCPAVDSVVSLLDGVVEKLSVLKRKAVESIQAEDESAKLCKRRIEHLKEHSSDQPAAASMWKRKRMDRMMVEHLLRCGYYNTAVKLARQSGIEDLVNIEMFLTAKEVEESLERRETATCLAWCHDNKSRLRKMKSCLEFSLRIQEFIELVRQNKRLDAVRHARKHFSQAEGSQLDEVRQVMGMLAFPPDTHISPYKDLLDPARWRMLIQQFRYDNYRLHQLGNSSVFTLTLQAGLSAIKTPQCYKEDGSSKSPDCPVCSRSLNKLAQPLPMAHCANSRLVCKISGDVMNENNPPMMLPNGYVYGYNSLLSIRQDDKVVCPRTKEVFHFSQAEKVYIM", "values": [{"measurement": "binding", "setting": "[1]", "result": "binds"}, {"measurement": "binding", "setting": "[2]", "result": "binds"}]}
